Reference: PubChem BioAssay AID720505 (Drosophila RNAi Screening Center, 2013)
In all, the deposit lists about 20,000 reagents; below is an unselected part of those with a known target gene and a result. In the full data, about 2,100 (10%) got an active call. 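Raw plate signals without normalisation; calls rest on control-based scores that were not deposited; replicate 2 separates called from uncalled poorly.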 Reagents against one gene are numbered here. Names joined by + are all predicted targets of the reagent. No sequences are given here. Not given: the amount of reagent, the time to read-out.

Aim: 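Genes needed for store-operated calcium entry in fly cells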 (primary screen)
System: Drosophila S2R+ cells
Reagents: long dsRNA against Drosophila genes
Conditions: thapsigargin (2 µM) in calcium-free buffer to empty internal stores, then 2 mM calcium added back
Measured: 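Fluo-4 signal in 384-well plates read on a FLIPR after thapsigargin (2 µM, calcium-free) store depletion and 2 mM calcium add-back; unnormalised mean endpoint per well; screen run twice, selected wells retested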
Direction: calcium signal and retest calcium signal: higher = more calcium entry after store depletion
Active means: 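Knock-downs counted as hits when calcium entry dropped relative to STIM1 positive and Rho1 negative controls present on each plate; roughly 1500 genes called, with reductions of differing size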
Calls: active = called as lowering calcium entry; inactive = not called

| gene knocked down | reagent | calcium signal, replicate 1 | calcium signal, replicate 2 | retest calcium signal, replicate 1 | retest calcium signal, replicate 2 | call |
| --- | --- | --- | --- | --- | --- | --- |
| CG17803 (GeneID 42141) | 1 | 146 | 113 | 10557 | 161 | inactive |
| CG17803 (GeneID 42141) | 2 | 77.4 | 113 | – | – | inactive |
| Lim3 (GeneID 35184) | 1 | 202 | 116 | – | – | inactive |
| Lim3 (GeneID 35184) | 2 | 154 | 90.7 | – | – | inactive |
| Lim3 (GeneID 35184) | 3 | 133 | 238 | – | – | inactive |
| Lim3 (GeneID 35184) | 4 | 70.9 | 138 | – | – | inactive |
| Lim3 (GeneID 35184) | 5 | 96.5 | 141 | – | – | inactive |
| FER (GeneID 41118) | 1 | – | – | – | – | inactive |
| FER (GeneID 41118) | 2 | 108 | 128 | – | – | inactive |
| Pgant2 (GeneID 33556) | 1 | 191 | 115 | – | – | inactive |
| psq (GeneID 36118) | 1 | 135 | 133 | – | – | inactive |
| psq (GeneID 36118) | 2 | 99.6 | 147 | – | – | inactive |
| CR15821 (GeneID 3771832) | 1 | 68 | 127 | – | – | inactive |
| CG11444 (GeneID 31388) | 1 | 113 | 127 | – | – | inactive |
| Taf3 (GeneID 43793) | 1 | 125 | 162 | – | – | inactive |
| mEFG1 (GeneID 34004) | 1 | 72.2 | 136 | – | – | active |
| beag (GeneID 41091) | 1 | 139 | 105 | – | – | inactive |
| SIFaR (GeneID 42530) | 1 | 108 | 93.6 | – | – | inactive |
| Daao2 (GeneID 33955) | 1 | 91 | 147 | – | – | inactive |
| CG16894 (GeneID 37280) | 1 | 139 | 133 | 131 | 112 | inactive |
| CG16894 (GeneID 37280) | 2 | 152 | 97.9 | – | – | inactive |
| JYalpha (GeneID 5740846) | 1 | 128 | 140 | – | – | inactive |
| Mabi (GeneID 34727) | 1 | 67.8 | 106 | 115 | 103 | inactive |
| Keap1 (GeneID 42062) | 1 | 175 | 211 | – | – | inactive |
| CG4297 (GeneID 33222) | 1 | 96.6 | 99.5 | – | – | inactive |
| RpL21 (GeneID 35453) | 1 | 69.4 | 92.3 | – | – | active |
| LysX (GeneID 38122) | 1 | 66.8 | 134 | – | – | inactive |
| CG1674 (GeneID 43780) | 1 | – | – | – | – | inactive |
| CG1674 (GeneID 43780) | 2 | 138 | 133 | – | – | inactive |
| tous (GeneID 37582) | 1 | 139 | 129 | – | – | inactive |
| Tsen34 + Trl | 1 | 114 | 152 | – | – | inactive |
| CG1024 (GeneID 40789) | 1 | 130 | 130 | – | – | inactive |
| CG9519 (GeneID 32415) | 1 | 131 | 101 | – | – | inactive |
| CG5541 (GeneID 2768877) | 1 | 103 | 94.5 | – | – | inactive |

A run of entries of the results above:
| gene knocked down | reagent | calcium signal, replicate 1 | calcium signal, replicate 2 | retest calcium signal, replicate 1 | retest calcium signal, replicate 2 | call |
| --- | --- | --- | --- | --- | --- | --- |
| Mabi (GeneID 34727) | 1 | 67.8 | 106 | 115 | 103 | inactive |
| Keap1 (GeneID 42062) | 1 | 175 | 211 | – | – | inactive |
| CG4297 (GeneID 33222) | 1 | 96.6 | 99.5 | – | – | inactive |
| RpL21 (GeneID 35453) | 1 | 69.4 | 92.3 | – | – | active |
| LysX (GeneID 38122) | 1 | 66.8 | 134 | – | – | inactive |
